# In the supplement of paper PMC10032668:
# Amino acid sequences for entries named in this document (tags omitted).
# PFN2, P35080, UniProt P35080, whole entry: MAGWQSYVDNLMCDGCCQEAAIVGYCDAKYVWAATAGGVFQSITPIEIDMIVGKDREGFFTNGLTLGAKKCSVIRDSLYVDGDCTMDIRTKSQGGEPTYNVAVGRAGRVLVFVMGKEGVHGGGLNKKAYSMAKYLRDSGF
# PGAM5, Q96HS1, UniProt Q96HS1, whole entry: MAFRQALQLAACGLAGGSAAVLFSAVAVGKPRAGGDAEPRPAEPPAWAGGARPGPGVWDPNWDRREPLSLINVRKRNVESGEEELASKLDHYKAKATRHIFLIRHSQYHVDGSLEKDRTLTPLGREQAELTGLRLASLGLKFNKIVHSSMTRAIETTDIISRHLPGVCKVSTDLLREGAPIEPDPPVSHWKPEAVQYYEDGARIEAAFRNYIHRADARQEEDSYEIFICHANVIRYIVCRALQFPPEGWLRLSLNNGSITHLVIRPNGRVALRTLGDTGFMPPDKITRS
# SMARCD1, Q96GM5, UniProt Q96GM5, whole entry: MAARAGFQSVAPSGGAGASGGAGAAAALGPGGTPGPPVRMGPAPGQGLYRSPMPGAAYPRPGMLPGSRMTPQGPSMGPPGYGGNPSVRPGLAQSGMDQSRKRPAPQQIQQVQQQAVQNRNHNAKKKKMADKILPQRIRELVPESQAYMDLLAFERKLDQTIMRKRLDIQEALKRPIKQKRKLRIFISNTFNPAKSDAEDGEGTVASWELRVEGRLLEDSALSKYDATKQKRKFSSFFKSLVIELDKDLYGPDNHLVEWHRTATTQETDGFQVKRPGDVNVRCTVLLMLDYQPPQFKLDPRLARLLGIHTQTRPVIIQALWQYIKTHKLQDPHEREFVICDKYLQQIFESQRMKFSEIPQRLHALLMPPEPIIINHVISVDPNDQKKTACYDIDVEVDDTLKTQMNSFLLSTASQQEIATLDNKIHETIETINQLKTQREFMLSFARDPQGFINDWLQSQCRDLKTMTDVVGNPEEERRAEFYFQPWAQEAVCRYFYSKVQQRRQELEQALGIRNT
# SMC2, O95347, UniProt O95347, whole entry: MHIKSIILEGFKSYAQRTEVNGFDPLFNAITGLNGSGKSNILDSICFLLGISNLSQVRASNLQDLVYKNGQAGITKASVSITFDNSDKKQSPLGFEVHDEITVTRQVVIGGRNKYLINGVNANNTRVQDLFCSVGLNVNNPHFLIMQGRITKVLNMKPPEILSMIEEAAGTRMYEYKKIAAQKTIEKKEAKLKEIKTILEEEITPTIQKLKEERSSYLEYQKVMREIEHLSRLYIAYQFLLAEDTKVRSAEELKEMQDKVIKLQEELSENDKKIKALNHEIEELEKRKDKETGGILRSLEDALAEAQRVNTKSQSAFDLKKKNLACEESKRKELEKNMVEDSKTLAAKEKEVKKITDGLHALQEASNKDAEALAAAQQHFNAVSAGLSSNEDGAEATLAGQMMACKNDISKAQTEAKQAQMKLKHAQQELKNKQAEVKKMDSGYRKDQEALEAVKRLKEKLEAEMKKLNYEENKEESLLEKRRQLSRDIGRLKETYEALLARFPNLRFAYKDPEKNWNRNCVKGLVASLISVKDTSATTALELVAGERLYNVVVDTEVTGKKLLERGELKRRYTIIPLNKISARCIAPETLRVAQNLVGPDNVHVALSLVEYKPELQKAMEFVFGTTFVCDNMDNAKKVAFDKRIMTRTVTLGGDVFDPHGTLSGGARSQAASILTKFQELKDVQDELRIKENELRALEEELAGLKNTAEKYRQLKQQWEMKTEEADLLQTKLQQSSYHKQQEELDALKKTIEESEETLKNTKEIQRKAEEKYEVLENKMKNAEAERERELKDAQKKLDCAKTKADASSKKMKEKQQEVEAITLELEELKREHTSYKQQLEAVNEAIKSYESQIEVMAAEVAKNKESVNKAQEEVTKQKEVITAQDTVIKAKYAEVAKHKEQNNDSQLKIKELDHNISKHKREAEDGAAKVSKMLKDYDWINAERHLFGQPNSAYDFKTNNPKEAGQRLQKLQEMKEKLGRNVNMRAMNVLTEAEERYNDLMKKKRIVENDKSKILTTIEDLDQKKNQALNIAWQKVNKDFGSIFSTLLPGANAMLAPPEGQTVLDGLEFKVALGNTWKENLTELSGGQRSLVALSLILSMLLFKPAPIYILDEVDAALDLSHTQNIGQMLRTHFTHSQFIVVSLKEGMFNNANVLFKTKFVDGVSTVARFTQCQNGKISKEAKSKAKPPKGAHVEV
# Some of the results follow. Only hits are listed; about a third recur on repeated control peptides.
# How the values were obtained:
# Experiment in all cases: PRISMA enrichment of interactor (LFQ) in peptide spot vs all other peptide spots (log2 fold change); higher = stronger / more specific binding of the interactor to the peptide
# NUDC, Q9Y266 = biological target: NUDC, Q9Y266
# Description: (§1)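 PRISMA: 15-aa overlapping tiles (offset 8 aa) of 60 microproteins, plus SOS1/GLUT1 control peptides, were spot-synthesized on cellulose membranes in triplicate. Membranes were incubated with benzonase-treated HEK293T lysate, and bound proteins were identified by LC-MS/MS with LFQ. Enrichment is the log2 fold change of each protein in one spot versus all other spots. Only interactors passing the significance cutoff are listed.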
# PDCD5, O14737 = biological target: PDCD5, O14737
# Description: as §1
# PEX3, P56589 = biological target: PEX3, P56589
# Description: as §1
# PFN2, P35080 = biological target: PFN2, P35080
# Description: as §1
# PGAM5, Q96HS1 = biological target: PGAM5, Q96HS1
# Description: as §1
# PHIP, Q8WWQ0 = biological target: PHIP, Q8WWQ0
# Description: as §1
# PRRC2A, P48634 = biological target: PRRC2A, P48634
# Description: as §1
# PRRC2C, Q9Y520 = biological target: PRRC2C, Q9Y520
# Description: as §1
# PTMS, P20962 = biological target: PTMS, P20962
# Description: as §1
# RAB6A, P20340 = biological target: RAB6A, P20340
# Description: as §1
# RCN1, Q15293 = biological target: RCN1, Q15293
# Description: as §1
# REEP5, Q00765 = biological target: REEP5, Q00765
# Description: as §1
# RIF1, Q5UIP0 = biological target: RIF1, Q5UIP0
# Description: as §1
# ROCK1, Q13464 = biological target: ROCK1, Q13464
# Description: as §1
# SEMG1, P04279 = biological target: SEMG1, P04279
# Description: as §1
# SEMG2, Q02383 = biological target: SEMG2, Q02383
# Description: as §1
# SF1, Q15637 = biological target: SF1, Q15637
# Description: as §1
# SFXN4, Q6P4A7 = biological target: SFXN4, Q6P4A7
# Description: as §1
# SMARCD1, Q96GM5 = biological target: SMARCD1, Q96GM5
# Description: as §1
# SMC2, O95347 = biological target: SMC2, O95347
# Description: as §1
# SPATA5, Q8NB90 = biological target: SPATA5, Q8NB90
# Description: as §1
# SUZ12, Q15022 = biological target: SUZ12, Q15022
# Description: as §1
# THRAP3, Q9Y2W1 = biological target: THRAP3, Q9Y2W1
# Description: as §1
# TSPYL2, Q9H2G4 = biological target: TSPYL2, Q9H2G4
# Description: as §1
# TXNDC12, O95881 = biological target: TXNDC12, O95881
# Description: as §1
# UBXN7, O94888 = biological target: UBXN7, O94888
# Description: as §1
# UHRF1, Q96T88 = biological target: UHRF1, Q96T88
# Description: as §1
# UQCRQ, O14949 = biological target: UQCRQ, O14949
# Description: as §1
# VPS35, Q96QK1 = biological target: VPS35, Q96QK1
# Description: as §1
# ZFR, Q96KR1 = biological target: ZFR, Q96KR1
# Description: as §1
# ZMPSTE24, O75844 = biological target: ZMPSTE24, O75844
# Description: as §1
# ZNF483, Q8TF39 = biological target: ZNF483, Q8TF39
# Description: as §1
binder,measurement,setting,value
RSTSMPSMAGTGHPL [RP11-140K17.3_2],PRISMA enrichment of interactor (log2),"NUDC, Q9Y266",5.4
same,PRISMA enrichment of interactor (log2),"PDCD5, O14737",4.48
same,PRISMA enrichment of interactor (log2),"PEX3, P56589",5.73
same,PRISMA enrichment of interactor (log2),"PFN2, P35080",7.8
same,PRISMA enrichment of interactor (log2),"PGAM5, Q96HS1",5.37
same,PRISMA enrichment of interactor (log2),"PHIP, Q8WWQ0",7.56
same,PRISMA enrichment of interactor (log2),"PRRC2A, P48634",4.48
same,PRISMA enrichment of interactor (log2),"PRRC2C, Q9Y520",8.74
same,PRISMA enrichment of interactor (log2),"PTMS, P20962",9.63
same,PRISMA enrichment of interactor (log2),"RAB6A, P20340",6.7
same,PRISMA enrichment of interactor (log2),"RCN1, Q15293",5.66
same,PRISMA enrichment of interactor (log2),"REEP5, Q00765",4.44
same,PRISMA enrichment of interactor (log2),"RIF1, Q5UIP0",5.06
same,PRISMA enrichment of interactor (log2),"ROCK1, Q13464",4.39
same,PRISMA enrichment of interactor (log2),"SEMG1, P04279",5.16
same,PRISMA enrichment of interactor (log2),"SEMG2, Q02383",4.15
same,PRISMA enrichment of interactor (log2),"SF1, Q15637",4.36
same,PRISMA enrichment of interactor (log2),"SFXN4, Q6P4A7",10.1
same,PRISMA enrichment of interactor (log2),"SMARCD1, Q96GM5",7.51
same,PRISMA enrichment of interactor (log2),"SMC2, O95347",5.33
same,PRISMA enrichment of interactor (log2),"SPATA5, Q8NB90",4.38
same,PRISMA enrichment of interactor (log2),"SUZ12, Q15022",5.96
same,PRISMA enrichment of interactor (log2),"THRAP3, Q9Y2W1",5.92
same,PRISMA enrichment of interactor (log2),"TSPYL2, Q9H2G4",7.21
same,PRISMA enrichment of interactor (log2),"TXNDC12, O95881",5.03
same,PRISMA enrichment of interactor (log2),"UBXN7, O94888",4.09
same,PRISMA enrichment of interactor (log2),"UHRF1, Q96T88",4.69
same,PRISMA enrichment of interactor (log2),"UQCRQ, O14949",5.43
same,PRISMA enrichment of interactor (log2),"VPS35, Q96QK1",12.5
same,PRISMA enrichment of interactor (log2),"ZFR, Q96KR1",4.56
same,PRISMA enrichment of interactor (log2),"ZMPSTE24, O75844",4.45
same,PRISMA enrichment of interactor (log2),"ZNF483, Q8TF39",5.28

# Reprinted at random: two records from the list
binder,measurement,setting,value
RSTSMPSMAGTGHPL [RP11-140K17.3_2],PRISMA enrichment of interactor (log2),"SMC2, O95347",5.33
same,PRISMA enrichment of interactor (log2),"ROCK1, Q13464",4.39
